# Values from PubChem BioAssay AID1259254 (NCATS, 2017).
# Test: 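Finding genes that stop cells copying their DNA twice in one cycle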 (primary screen)
# System: human HCT116 colorectal cancer cells
# Knock-down reagent: single siRNA against human genes
# Timing: 3 days
# Measurement: 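Imaged Hoechst DNA stain sorts each cell into a cycle phase by DNA amount; per plate, G2 fraction set to 0% for non-targeting and 100% for GMNN siRNA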
# Scale: G2 robust z-score and G2 cells, % of GMNN control: higher = more G2 cells, more excess DNA replication; raw share of cells in G2: higher = larger share of cells with G2 DNA content
# Hit rule: 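Active siRNAs have a G2 robust z of 5 or more median absolute deviations over the median, which in these data means about 38% or higher of GMNN control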
# This is an unselected part of about 59,000 deposited reagents. About 1,550 of all reagents (2.6%) count as active. 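G2 share is only a proxy for re-replication; each gene was hit by three separate siRNAs, and active genes were retested.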 The raw values are shown without normalisation. Reagents against one gene are numbered here. Not stated in the record: the amount of reagent.
gene knocked down,siRNA no.,G2 robust z-score,"G2 cells, % of GMNN control",raw share of cells in G2 (%),call
S100A10,1,0.548,6.82,6.17,inactive
S100A10,2,-0.814,-2.76,3.56,inactive
S100A10,3,1.54,13.8,8.13,inactive
FAM32A,1,0.128,3.87,4.65,inactive
FAM32A,2,0.0566,3.37,5.68,inactive
FAM32A,3,-0.919,-3.5,2.42,inactive
PDLIM7,1,1.48,13.4,9.96,inactive
PDLIM7,2,-0.877,-3.2,3.08,inactive
PDLIM7,3,-0.387,0.246,4.79,inactive
ACAT1,1,-0.728,-2.15,3.99,inactive
ACAT1,2,-1.06,-4.52,2.31,inactive
ACAT1,3,0.138,3.94,6.47,inactive
FRK,1,1.65,14.6,10.4,inactive
FRK,2,-0.573,-1.06,5.05,inactive
FRK,3,1.84,15.9,9.63,inactive
LSM4,1,0.321,5.22,8.53,inactive
LSM4,2,1.56,14,8.83,inactive
LSM4,3,-1.23,-5.66,2.14,inactive
NLRP4,1,-0.326,0.677,4.06,inactive
NLRP4,2,0.488,6.4,4.89,inactive
NLRP4,3,-0.301,0.85,3.36,inactive
LOC400965 (retired record),1,-0.581,-1.12,2.77,inactive
LOC400965 (retired record),2,0.299,5.07,6.08,inactive
LOC400965 (retired record),3,-0.63,-1.47,2.72,inactive
KRTAP5-11,1,-0.646,-1.58,2.89,inactive
KRTAP5-11,2,0.946,9.62,8.78,inactive
KRTAP5-11,3,-0.546,-0.877,3.49,inactive
EPB41L3,1,-0.391,0.216,5.07,inactive
EPB41L3,2,-0.351,0.496,4.34,inactive
EPB41L3,3,0.177,4.22,4.75,inactive

Part of the list above, set out differently:
gene knocked down | siRNA no. | G2 robust z-score | G2 cells, % of GMNN control | raw share of cells in G2 (%) | call
LOC400965 (retired record) | 1 | -0.581 | -1.12 | 2.77 | inactive
LOC400965 (retired record) | 2 | 0.299 | 5.07 | 6.08 | inactive
LOC400965 (retired record) | 3 | -0.63 | -1.47 | 2.72 | inactive
KRTAP5-11 | 1 | -0.646 | -1.58 | 2.89 | inactive
